No constants are given. Whether binding was seen depends on the method and setting. Binding seen in cells or lysates may run through a third protein. A yes stands for co-enrichment or nearness to the bait. Other partners may have been found.
Biological target: protein arginine methyltransferase 1 (PRMT1), endogenous (human (endogenous in LIU-LSC-1)) (UniProt Q99873)
Experiment: affinity purification with mass spectrometry; PRMT1 or IgG antibodies on magnetic beads, LIU-LSC-1 lysate supernatant, overnight at 4 °C; eluate on 4–12% SDS-PAGE, bands excised, LC-MS

Amino acid sequences for entries named in this document (tags omitted).
UniProt Q99873: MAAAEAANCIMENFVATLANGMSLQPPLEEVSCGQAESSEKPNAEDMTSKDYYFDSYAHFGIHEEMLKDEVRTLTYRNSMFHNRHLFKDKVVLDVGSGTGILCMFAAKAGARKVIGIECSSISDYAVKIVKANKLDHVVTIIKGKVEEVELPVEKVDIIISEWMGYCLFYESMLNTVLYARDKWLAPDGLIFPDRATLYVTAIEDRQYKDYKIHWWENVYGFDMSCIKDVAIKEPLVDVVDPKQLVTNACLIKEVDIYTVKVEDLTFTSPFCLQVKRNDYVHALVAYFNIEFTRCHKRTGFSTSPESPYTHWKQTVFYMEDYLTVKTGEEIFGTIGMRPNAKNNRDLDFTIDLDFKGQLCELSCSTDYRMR
UniProt Q92922: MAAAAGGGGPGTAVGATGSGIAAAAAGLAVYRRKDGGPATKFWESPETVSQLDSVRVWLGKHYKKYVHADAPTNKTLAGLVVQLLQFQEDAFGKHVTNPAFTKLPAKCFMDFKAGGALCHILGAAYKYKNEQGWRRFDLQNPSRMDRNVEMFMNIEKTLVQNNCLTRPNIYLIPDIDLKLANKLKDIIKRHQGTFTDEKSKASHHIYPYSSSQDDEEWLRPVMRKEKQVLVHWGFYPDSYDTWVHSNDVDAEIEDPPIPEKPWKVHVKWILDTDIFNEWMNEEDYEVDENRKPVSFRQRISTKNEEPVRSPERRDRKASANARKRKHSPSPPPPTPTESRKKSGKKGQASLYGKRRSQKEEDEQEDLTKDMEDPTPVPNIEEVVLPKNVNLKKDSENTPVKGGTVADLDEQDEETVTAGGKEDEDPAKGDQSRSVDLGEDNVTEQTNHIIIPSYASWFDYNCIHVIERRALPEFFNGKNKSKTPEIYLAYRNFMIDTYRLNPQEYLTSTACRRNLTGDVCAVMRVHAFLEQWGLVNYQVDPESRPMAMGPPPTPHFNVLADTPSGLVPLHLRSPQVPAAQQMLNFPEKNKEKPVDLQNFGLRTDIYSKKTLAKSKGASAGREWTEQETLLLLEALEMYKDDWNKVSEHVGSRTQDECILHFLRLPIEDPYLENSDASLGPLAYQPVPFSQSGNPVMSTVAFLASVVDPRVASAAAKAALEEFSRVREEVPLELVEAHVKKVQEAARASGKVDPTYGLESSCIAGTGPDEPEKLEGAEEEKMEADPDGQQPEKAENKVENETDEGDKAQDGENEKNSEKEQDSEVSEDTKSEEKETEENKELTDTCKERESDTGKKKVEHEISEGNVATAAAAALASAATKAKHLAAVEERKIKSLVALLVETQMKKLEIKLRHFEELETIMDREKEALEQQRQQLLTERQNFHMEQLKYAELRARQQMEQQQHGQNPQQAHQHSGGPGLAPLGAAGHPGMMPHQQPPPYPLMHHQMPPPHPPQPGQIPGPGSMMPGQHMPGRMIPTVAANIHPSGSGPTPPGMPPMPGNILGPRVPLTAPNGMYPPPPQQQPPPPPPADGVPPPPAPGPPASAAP

## SWI/SNF related, matrix associated, actin dependent regulator of chromatin subfamily C member 1 (SMARCC1), endogenous (from UniProt Q92922 1-1105)
  binding: binds
